Among all 53,000 sequences or so, about 3,700 (7%) were called active.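 Rule for the calls: active = gene knockdowns whose robust z-score for IL-1 alpha signal is at least 2 or at most -2, so actives lie on both sides; inactive = the rest.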 The list shows a part of the results.

Data on 106 sequences can be found in PubChem BioAssay AID1508600 (Functional Genomics Laboratory (NCATS/FGL), 2020).

This experiment in a line: Components of the Cytosolic LPS Sensing Pathway: Gene Identification via Genome-wide siRNA Screen.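 Note: robust z of the log signal after scaling to non-targeting control siRNA wells of the plate.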 As to conditions: RAW264.7 macrophages, IL-1a HTRF, actives lie on both sides, screened at 100 nM (by protocol), cells primed 5 h with Pam3CSK4 first. The gist of the method:
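RAW264.7 mouse macrophages reverse-transfected with single siRNAs (100 nM final) for 48h, primed with Pam3CSK4 for 5 hours, then transfected with LipidA for 24 hour. Supernatant IL-1a read by HTRF; values normalized to negative-control median, log-transformed robust z-scores.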
Take GGACUUCAUAUUAGCAUGUTT against Plbd2: the z-score was inactive: -1.27.

In the case of CCCAAUACAUAUGUUAAGUTT against Syt14, the z-score was inactive: 0.623.

Consider GAGAACUGCUACGACUCUGTT against Coro2a, for which the z-score was inactive: 1.43.

For GGGAGAUUCUAUGAGGACUTT against Depdc5, the z-score was inactive: -0.0963.

For the sequence CACGCAGAUGAUUAAGUUGTT against Olfr1000, the z-score is inactive: 1.25.

Consider CCUUGCCAAGACAGAAUAUTT against Pramel3, for which the z-score was inactive: 0.682.

Turning to GUGAGUAGGUAGGAAGCAUTT against Cd200r2, the z-score is active: -2.56.

Turning to CCUCUGGAUCUACGAGCUGTT against Odf4, the z-score is inactive: -0.00669.

Regarding GGUUUUCAGCUGCAUCAUGTT against Olfr303, the z-score was inactive: -0.0656.

With GGUGGCAGACUGUGUUUAUTT against B3gnt8, the z-score is active: -2.08.

As to GGAUUGCCCUGUGGACAAGTT against Nr4a1, the z-score is inactive: 0.963.

As to GUGUGGCUCUUAUGUACCUTT against Olfr427, the z-score is inactive: 1.26.

For the sequence GAAAUGUGGAAAGACACUGTT against Crip1, the z-score is inactive: 0.586.

GGCAAAGGAUAGUGGACAATT against Clic1: the z-score was inactive: 0.48.

Consider GCACAUUUAACUUCAGUCATT against Tg, for which the z-score is inactive: -0.207.

As to GGCAGGAAAACUGCCAAUGTT against Gm6034, the z-score is inactive: 1.36.

Regarding GCAUGUUUCUAAACUUAGUTT against Sh3rf2, the z-score is inactive: -0.432.

For the sequence GCUACAGUGGGACUUAGGATT against Arhgef40, the z-score is inactive: -0.403.

For GGGAGAGCGAGGAAGAUAATT against Sox9, the z-score is inactive: -0.205.

As to GGACUUUGUGAUCUUUCCATT against Pias2, the z-score was inactive: -0.57.

As for GGAAACAGAACAGAUAUUUTT against Chd6, the z-score is inactive: 0.111.

As for “GCUACUAACCAUCGGCUUCTT against 1700067K01Rik”, the z-score was inactive: 1.51.

For GGCGACGUACCAUCACCUATT against Senp3, the z-score was inactive: 0.143.

On to “GGAGGACCAUUGUAAGUAGTT against 9930022D16Rik”, for which the z-score was active: 2.17.

As to GGAGAAAAGGUGUUUCGACTT against Asap3, the z-score was inactive: -0.461.

For the sequence UCUCAAAGACGAAUAUCAUTT against Olfr875, the z-score was inactive: -0.113.

Take GCACAUUGUCUAGUAGUAATT against Zfp280d: the z-score is inactive: -0.622.

Take GGAGUACGACUACUACGGUTT against Sfrp5: the z-score is inactive: 0.83.

Consider GCUGACUCAUACGAAAAACTT against Cdk14, for which the z-score was inactive: -0.535.

As to GGACUCAGCAACAGGUCUUTT against Olfr544, the z-score was inactive: -0.833.

As for GGUACGCAUUCCACAGUUCTT against Tbx10, the z-score is inactive: 1.31.

For CGAGAUUGGAGUCAUGUUUTT against Adcy3, the z-score is inactive: 0.67.

Turning to GGAUAUGCAGUGGAACUAUTT against Heph, the z-score is active: -2.13.

GGUACACCCUAGGAAAGAUTT against Pbxip1: the z-score was inactive: 0.721.

For the sequence CCGUAGAAAUACCAUAGACTT against Cables1, the z-score was inactive: -0.137.

Regarding GGCAGUUAAUUUCUUUGGATT against Ica1, the z-score is inactive: 0.789.

In the case of GCUAUUAGGAAAUGAAAGATT against Ncald, the z-score was inactive: 0.384.

Consider “CCCUCUUUUCGUUUUCUACTT against 1700129C05Rik”, for which the z-score was inactive: 0.321.

In the case of GGCAGGACAAAACACCAAATT against Hirip3, the z-score is inactive: -0.427.

Take CGGACAAGUGUUUUUCGUUTT against Wwox: the z-score is inactive: 0.315.

On to GGGUUCUAUAGUCUCCACCTT against Hbq1b, for which the z-score was inactive: -1.01.

Consider GGCACAGCAGUCUUGAGCUTT against Retn, for which the z-score is inactive: 0.342.

Consider GGAUUCAAAUGUUCAAAGGTT against Il27, for which the z-score was inactive: 0.313.

On to CCUACAUUCCAUUUUAAUGTT against Hydin, for which the z-score is inactive: -0.971.

GGUGGAGAACUAUUACAGCTT against Myf5: the z-score was inactive: -0.144.

For the sequence GGAUAACGUAAUGAAGAUCTT against Fgfr1, the z-score is inactive: -0.866.

Regarding GGAAUUUGAUUCUGAAGAATT against Gmnn, the z-score is inactive: -0.874.

Take GCUAUGAACUCCACAUCUATT against Mov10: the z-score is inactive: -0.109.

Turning to CCUAAGACGUGGACUGGUGTT against Zfp563, the z-score was inactive: -0.176.

In the case of AGCCGAUCCUGUGCCUGUUTT against Dnph1, the z-score was inactive: 0.592.

Regarding CGCAGACAAGCAAGAAGUATT against Olfr735, the z-score is inactive: 0.0417.

As for GCGUGGAAGGUCUGAACACTT against Arfgap3, the z-score was active: 4.18.

For the sequence GGUCUAUGAAGAGAAGACUTT against Mtres1, the z-score is inactive: 0.8.

GGUUAUCACAGAAGACUUATT against Clic6: the z-score was inactive: -0.116.

For the sequence GCCGUUGGAUCCCAUAUCATT against Ccdc181, the z-score is inactive: 0.295.

As to UAUGACUCCACUCUUCUCUTT against Olfr1158, the z-score was active: -2.

Turning to GGACAGGACCAAAAGGACUTT against Klk4, the z-score is inactive: -1.94.

For the sequence GGUAUGUUUUAUCUUGACATT against Olfr851, the z-score is inactive: 0.269.

Turning to GGUUUGGCCAUCUCCUAUGTT against Mfsd10, the z-score was inactive: -0.661.

In the case of GGACUCUGCUAGGAAGACATT against Fstl4, the z-score is inactive: 1.95.

Turning to CCUUUGUGCAAUGCUACACTT against Actl11, the z-score was inactive: 0.244.

With GCUUAAGCAGAAUGGUGCUTT against Arid3b, the z-score is inactive: 0.329.

Consider GGAGACAAAUAUGAUGUAUTT against Hook1, for which the z-score is inactive: -0.507.

On to GGAACCUGAUCCACUACUATT against H2-Bl, for which the z-score is inactive: -0.407.

GCCACACCAAUAGAAGUGUTT against Csnk1g3: the z-score was active: -2.42.

In the case of GCCGAAAUUGUGUCUCUGUTT against Insig1, the z-score is inactive: 0.167.

For the sequence GGAAAUAAGACUCAGGUCATT against Gtf2a1, the z-score is inactive: 0.749.

Turning to GGUAAGCUAAAUGAAAUGGTT against Rbbp8, the z-score was inactive: -0.134.

Turning to GGCCUUCAAGGUAUUCGACTT against Cabp7, the z-score is inactive: -0.98.

In the case of GGAUCCCAUUAGAAAGAAATT against Cbx2, the z-score was inactive: 0.316.

On to CCCAUGAACAUUCCCUUAATT against Prdx1, for which the z-score is inactive: -0.373.

With GGAUAAAGGCAAAGACAAATT against Rsrc1, the z-score was inactive: 0.891.

Regarding GGAGAAGCAAACUGCACCUTT against Cacng6, the z-score was inactive: 1.08.

Turning to GGUGUAGCUCUUGAUUAAUTT against Icmt, the z-score is inactive: 1.27.

For GCUUCAUAUAGACAAAGCCTT against Epo, the z-score is inactive: -0.625.

With “CCAUUCCUGGAGAUGGUUGTT against 5031410I06Rik”, the z-score was inactive: -0.0791.

In the case of CCCUGAACGCAUCACUAUCTT against Nlgn2, the z-score is inactive: -0.773.

Consider GGUUGAAAAGUAUCAAAGATT against Pus7l, for which the z-score was inactive: -0.359.

Take GGACCUUCUUUGAACAUAATT against Eno4: the z-score is inactive: -0.144.

GGCUCAGUACUUUCUAAAATT against Vmn1r72: the z-score was inactive: -0.637.

With GGAGAUACGGGACAGAGUGTT against Olfr655, the z-score was inactive: -0.181.

Regarding GGAACCAGAGACAUUGUUUTT against Pola2, the z-score is inactive: 1.62.

Consider GGCCAUCAGAGCUACACUUTT against Gpa33, for which the z-score is inactive: 0.806.

As for GGAUUGGAGGUCUUAAAACTT against Mbtps1, the z-score was inactive: -0.303.

GCCCGGAAGUUUGUUAAAGTT against Mtrr: the z-score is inactive: -1.46.

Regarding GGAGAAUAUCCUCCCAGGATT against Cdca2, the z-score is inactive: -0.139.

Turning to GCUUGACUUUGAAAGUCCATT against Gm11733, the z-score is inactive: -1.54.

For GGUGAUCGAGGAGAGUCUATT against Oaf, the z-score was inactive: -0.737.

For GGGCACCUAGUUUCCAUGATT against Cox7b, the z-score was inactive: -0.385.

Consider GGACCUAAAAAUGGUAUAUTT against Lrp1b, for which the z-score is inactive: -0.511.

Take GGUAAUGACAACUAUAGAGTT against Tspan6: the z-score is inactive: -0.26.

With GGAGGGAUAUGGAAACAAGTT against Zfp866, the z-score was inactive: 0.989.

With GGAACAAAUGUUCGAAAUGTT against Eif4a2, the z-score is inactive: -0.0347.

As for GGACAUGAUUUUAUGCUUCTT against Zkscan17, the z-score is inactive: 0.446.

Turning to CCGUGAAAAAAUUAAACAGTT against Slk, the z-score was inactive: 0.338.

Regarding GGAUUCUCACCAAAUACUUTT against Oprd1, the z-score was inactive: 0.305.

For UCCGUUGGAGUAUCGAUGUTT against Trp53rka, the z-score was inactive: -1.25.

Regarding GGAGCAGAUGCUAACUGUGTT against Zscan2, the z-score was inactive: 1.37.

Regarding GGAAGAUGAAUCAUUACCATT against Mmgt1, the z-score is inactive: -1.35.

As for CCGACGAUUCCUGAAGCUATT against Tada3, the z-score was inactive: -0.275.

Regarding GGCCUACGAGAGGCAAAAATT against Hnf1a, the z-score was active: -2.05.

Regarding GGUCGUCCCUCUUUAUGGGTT against Rnf5, the z-score was inactive: 1.56.

Regarding GGCAAAAAACUGAGAAGAATT against Zfp148, the z-score was inactive: -1.4.

Take “GGGUCCUCCCUUUUAAGAGTT against 1700123L14Rik”: the z-score was inactive: 0.415.

As to GGAGGUGUUAGAUUUUGACTT against Asrgl1, the z-score is inactive: -0.295.

As to GGAAAUGGAUUUCUUAUGGTT against Cutc, the z-score was inactive: -0.0561.
